Some of the results follow.
Tests used:
Assay in all cases: glycan array binding signal (z-score within array); higher = stronger binding
Conditions in all cases: glycan notation: IUPAC condensed, linker removed
[1] = molecular target: Gal(a1-3)Gal(b1-4)GlcNAc(b1-2)Man
In short: (§1)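 The Consortium for Functional Glycomics database supplied 3228 glycan arrays, of which those lacking an available protein sequence were dropped. The binding signal, a within-array Z-score, was averaged across arrays of the same protein sequence and across linkers. Negative scores can be read as non-binding.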

[2] = molecular target: Gal(a1-3)Gal(b1-4)GlcNAc(b1-2)Man(a1-3)[Gal(a1-3)Gal(b1-4)GlcNAc(b1-2)Man(a1-6)]Man(b1-4)GlcNAc(b1-4)GlcNAc
In short: as §1

[3] = molecular target: Gal(a1-3)Gal(b1-4)GlcNAc(b1-3)GalNAc
In short: as §1

[4] = molecular target: Gal(a1-3)Gal(b1-4)GlcNAc(b1-6)GalNAc
In short: as §1

[5] = molecular target: Gal(a1-3)Gal(b1-4)[Fuc(a1-3)]GlcNAc
In short: as §1

[6] = molecular target: Gal(a1-3)Gal(b1-4)[Fuc(a1-3)]GlcNAc(b1-2)Man(a1-3)[Gal(a1-3)Gal(b1-4)[Fuc(a1-3)]GlcNAc(b1-2)Man(a1-6)]Man(b1-4)GlcNAc(b1-4)GlcNAc
In short: as §1

Gal(a1-3)GalNAc = molecular target: Gal(a1-3)GalNAc
In short: as §1

[7] = molecular target: Gal(a1-3)[Gal(a1-4)]Gal(b1-4)GlcNAc
In short: as §1

[8] = molecular target: Gal(a1-4)Gal(b1-3)GlcNAc(b1-2)Man(a1-3)[Gal(a1-4)Gal(b1-3)GlcNAc(b1-2)Man(a1-6)]Man(b1-4)GlcNAc(b1-4)GlcNAc
In short: as §1

Gal(a1-4)Gal(b1-4)Glc = molecular target: Gal(a1-4)Gal(b1-4)Glc
In short: as §1

Gal(a1-4)Gal(b1-4)GlcNAc = molecular target: Gal(a1-4)Gal(b1-4)GlcNAc
In short: as §1

[9] = molecular target: Gal(a1-4)Gal(b1-4)GlcNAc(b1-2)Man(a1-3)[Gal(a1-4)Gal(b1-4)GlcNAc(b1-2)Man(a1-6)]Man(b1-4)GlcNAc(b1-4)GlcNAc
In short: as §1

[10] = molecular target: Gal(a1-4)Gal(b1-4)GlcNAc(b1-3)Gal(b1-4)Glc
In short: as §1

Gal(a1-4)GlcNAc = molecular target: Gal(a1-4)GlcNAc
In short: as §1

Gal(a1-6)Glc = molecular target: Gal(a1-6)Glc
In short: as §1

Gal(b1-2)Gal = molecular target: Gal(b1-2)Gal
In short: as §1

Gal(b1-3)Gal = molecular target: Gal(b1-3)Gal
In short: as §1

Gal(b1-3)Gal(b1-4)GlcNAc = molecular target: Gal(b1-3)Gal(b1-4)GlcNAc
In short: as §1

Gal(b1-3)GalNAc = molecular target: Gal(b1-3)GalNAc
In short: as §1

[11] = molecular target: Gal(b1-3)GalNAc(a1-3)[Fuc(a1-2)]Gal(b1-4)Glc
In short: as §1

[12] = molecular target: Gal(b1-3)GalNAc(a1-3)[Fuc(a1-2)]Gal(b1-4)GlcNAc
In short: as §1

Gal(b1-3)GalNAc(b1-3)Gal = molecular target: Gal(b1-3)GalNAc(b1-3)Gal
In short: as §1

[13] = molecular target: Gal(b1-3)GalNAc(b1-3)Gal(a1-4)Gal(b1-4)Glc
In short: as §1

[14] = molecular target: Gal(b1-3)GalNAc(b1-4)Gal(b1-4)Glc
In short: as §1

[15] = molecular target: Gal(b1-3)GalNAc(b1-4)[Neu5Ac(a2-3)]Gal(b1-4)Glc
In short: as §1

Gal(b1-3)GlcNAc = molecular target: Gal(b1-3)GlcNAc
In short: as §1

[16] = molecular target: Gal(b1-3)GlcNAc(a1-3)Gal(b1-4)GlcNAc
In short: as §1

[17] = molecular target: Gal(b1-3)GlcNAc(a1-6)Gal(b1-4)GlcNAc
In short: as §1

Gal(b1-3)GlcNAc(b1-2)Man = molecular target: Gal(b1-3)GlcNAc(b1-2)Man
In short: as §1

[18] = molecular target: Gal(b1-3)GlcNAc(b1-2)Man(a1-3)[Gal(b1-3)GlcNAc(b1-2)Man(a1-6)]Man(b1-4)GlcNAc(b1-4)GlcNAc
In short: as §1

[19] = molecular target: Gal(b1-3)GlcNAc(b1-2)Man(a1-3)[Gal(b1-3)GlcNAc(b1-2)Man(a1-6)]Man(b1-4)GlcNAc(b1-4)[Fuc(a1-6)]GlcNAc
In short: as §1

[20] = molecular target: Gal(b1-3)GlcNAc(b1-2)Man(a1-3)[GlcNAc(b1-4)][Gal(b1-3)GlcNAc(b1-2)Man(a1-6)]Man(b1-4)GlcNAc(b1-4)GlcNAc
In short: as §1

[21] = molecular target: Gal(b1-3)GlcNAc(b1-2)[Gal(b1-3)GlcNAc(b1-6)]Man(a1-6)[Gal(b1-3)GlcNAc(b1-2)Man(a1-3)]Man(b1-4)GlcNAc(b1-4)GlcNAc
In short: as §1

[22] = molecular target: Gal(b1-3)GlcNAc(b1-3)Gal(b1-3)GlcNAc
In short: as §1

[23] = molecular target: Gal(b1-3)GlcNAc(b1-3)Gal(b1-4)Glc
In short: as §1

[24] = molecular target: Gal(b1-3)GlcNAc(b1-3)Gal(b1-4)GlcNAc
In short: as §1

[25] = molecular target: Gal(b1-3)GlcNAc(b1-3)Gal(b1-4)GlcNAc(b1-2)Man(a1-3)[Gal(b1-3)GlcNAc(b1-3)Gal(b1-4)GlcNAc(b1-2)Man(a1-6)]Man(b1-4)GlcNAc(b1-4)GlcNAc
In short: as §1

B1: Mnn9-2N3 (Aspergillus fumigatus) (protein)
chain: MAVARRMRRTNPITLLLAAILAIGFFIFVLSPSTTSASPVKAGSASSSSTSQQRREDNAAENPLSPPTKPFFKSQPVRHDGQQAPPPVVQYNLNQLSSTSTSAANGERILILTPMARFVPEYWDNVVKLTYPHELISIGFIIPKNKEGNAALAALEAAIAKTQSGPIDKRFASISILRQDFEPPLQSQDEKERHKISNQKARRESMSRARNSLLFTTLGPATAWVLWLDADIVETPPTLIQDLTAHDHPVLVPNCYQRYYNSEKKKMDVRPYDYNSWIDSSTAQSMAAEMGPDEILLEGYAEMPTYRTLMAHLADTANPNPKKVIELDGVGGTALMVKAEVHRDGAMFPAFPFYHLVETEGFAKMAKRLGYSVYGLPDYFVSRNFFFFFFFFFFG
[1]
  glycan array binding signal (z-score): 0.956
[2]
  glycan array binding signal (z-score): 0.22
[3]
  glycan array binding signal (z-score): -0.252
[4]
  glycan array binding signal (z-score): 1.17
[5]
  glycan array binding signal (z-score): 0.295
[6]
  glycan array binding signal (z-score): 2.41
Gal(a1-3)GalNAc
  glycan array binding signal (z-score): 1.16
[7]
  glycan array binding signal (z-score): -0.015
[8]
  glycan array binding signal (z-score): -0.626
Gal(a1-4)Gal(b1-4)Glc
  glycan array binding signal (z-score): -0.443
Gal(a1-4)Gal(b1-4)GlcNAc
  glycan array binding signal (z-score): -0.114
[9]
  glycan array binding signal (z-score): 0.199
[10]
  glycan array binding signal (z-score): -2.17
Gal(a1-4)GlcNAc
  glycan array binding signal (z-score): 2.75
Gal(a1-6)Glc
  glycan array binding signal (z-score): 2.31
Gal(b1-2)Gal
  glycan array binding signal (z-score): 1.83
Gal(b1-3)Gal
  glycan array binding signal (z-score): 2.22
Gal(b1-3)Gal(b1-4)GlcNAc
  glycan array binding signal (z-score): -0.267
Gal(b1-3)GalNAc
  glycan array binding signal (z-score): -0.491
[11]
  glycan array binding signal (z-score): -0.308
[12]
  glycan array binding signal (z-score): -0.28
Gal(b1-3)GalNAc(b1-3)Gal
  glycan array binding signal (z-score): -0.049
[13]
  glycan array binding signal (z-score): -1.83
[14]
  glycan array binding signal (z-score): -1.14
[15]
  glycan array binding signal (z-score): 0.109
Gal(b1-3)GlcNAc
  glycan array binding signal (z-score): 0.408
[16]
  glycan array binding signal (z-score): -0.844
[17]
  glycan array binding signal (z-score): -0.013
Gal(b1-3)GlcNAc(b1-2)Man
  glycan array binding signal (z-score): -0.115
[18]
  glycan array binding signal (z-score): -0.154
[19]
  glycan array binding signal (z-score): -0.497
[20]
  glycan array binding signal (z-score): 0.004
[21]
  glycan array binding signal (z-score): -0.176
[22]
  glycan array binding signal (z-score): -0.486
[23]
  glycan array binding signal (z-score): 1.12
[24]
  glycan array binding signal (z-score): 2.26
[25]
  glycan array binding signal (z-score): 2.02
